From patent EP4371586B1, “MULTIFUNCTIONAL CHITOSAN COMPOSITES FOR BONE DEFECT FILLING AND BONE TISSUE REGENERATION AND METHODS FOR OBTAINING THEM” (Siec Badawcza Lukasiewicz - Instytut Ceramiki i Materialow …, priority 2022, dated 2024)
Part of at least one peptide drawing is inferred or uncertain, most often the ends. Peptide text beside a SMILES is read from it.

Tested on: hFOB human osteoblast cell line
Assay: WST-1 proliferation assay of peptides, indirect method per ISO 10993-5
Assay type: cell-based
Settings: % of proliferation of control cells
Description: Cytotoxicity was tested by an indirect method based on the guidelines in ISO 10993- 5 on the hFOB human osteoblast cell line (ATCC) using the LDH assay (Roche). The results presented were averaged from two technical repeats and presented as % relative to control cells treated with 1% Triton X- 100 solution. proliferation was tested by an indirect method based on the guidelines in ISO 10993- 5 on the hFOB human osteoblast cell line (ATCC) using the WST-1 assay (Abcam). The results shown were averaged from two technical repeats and presented as % in relation to control cells cultured without added peptides.
Proliferation and cytotoxicity data were analysed and visualised using GraphPad Prism 8 software (GraphPad Software, USA). Statistical analysis was performed using the Kruskal- Wallis test (p = 0.05). In the next step, the Benjamini, Krieger and Yekutielli multiple comparisons test was performed to control the false discovery rate (p = 0.05). Comparisons were made between results obtained for individual peptide concentrations.

How did the proliferation (any ug1/ug4 peptide concentration (none lower)) turn out when CC(C)C[C@H](N)C(=O)N[C@@H](Cc1ccc(O)cc1)C(=O)NCC(=O)N[C@@H](Cc1ccccc1)C(=O)NCC(=O)NCC(N)=O [ug1, Leu Tyr Gly Phe Gly Gly] (H-LYGFGG-NH2) was run?
Its proliferation is ≥ 70%.

What about the proliferation (most concentrations of ug1/ug4 peptide) of the same molecule?
Its proliferation is “above 100%”.
